{
  "source": "patent US20250229073A1",
  "about": "“TRANSIENT DISRUPTION OF THE NEUROVASCULAR BARRIER OF A HUMAN AND USES THEREOF FOR TREATING AMYOTROPHIC LATERAL SCLEROSIS” (SORBONNE UNIVERSITE, priority 2022, published 2025)",
  "origin": "cited, not measured here",
  "settings": "factor, ALS models vs wild type models; cited from earlier work",
  "data": [
    {"smiles": "Nc1nc2ccc(OC(F)(F)F)cc2s1", "note": "[riluzole, 2-amino-6-trifluoromethoxybenzothiazole]", "values": [
      {"measurement": "brain distribution decrease in ALS models compared to wild type models", "value": 1.7}
    ]}
  ]
}
